Laboratory results as given in article doi:10.64898/2025.12.17.694969.
Where a chain is given by its changes, count along the chain named. Results are given in words; binding and its absence hold for the method and conditions named. Some results given as binding are weak or reduced against the parent protein; the word gives no strength. For some of these results: Tags and fused reporters may be left off the sequences shown.

Legend:
[1] = target: T1, SymplekinNTD (Symplekin residues 1–307) (S. pombe) (UniProt Q10222); test: crystal structure
T1 sequence: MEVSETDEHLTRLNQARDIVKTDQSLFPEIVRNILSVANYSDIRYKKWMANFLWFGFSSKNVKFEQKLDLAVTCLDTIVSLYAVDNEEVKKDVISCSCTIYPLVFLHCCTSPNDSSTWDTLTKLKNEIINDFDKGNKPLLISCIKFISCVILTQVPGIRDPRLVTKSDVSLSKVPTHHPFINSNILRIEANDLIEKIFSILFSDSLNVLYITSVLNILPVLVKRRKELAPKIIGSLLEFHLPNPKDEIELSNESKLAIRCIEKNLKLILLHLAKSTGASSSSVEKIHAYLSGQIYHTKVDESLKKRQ

[2] = target: T2, Symplekin with twin-StrepII tag (S. pombe Symplekin/Pta1) (S. pombe) (UniProt Q10222); test: cross-linking
T2 sequence: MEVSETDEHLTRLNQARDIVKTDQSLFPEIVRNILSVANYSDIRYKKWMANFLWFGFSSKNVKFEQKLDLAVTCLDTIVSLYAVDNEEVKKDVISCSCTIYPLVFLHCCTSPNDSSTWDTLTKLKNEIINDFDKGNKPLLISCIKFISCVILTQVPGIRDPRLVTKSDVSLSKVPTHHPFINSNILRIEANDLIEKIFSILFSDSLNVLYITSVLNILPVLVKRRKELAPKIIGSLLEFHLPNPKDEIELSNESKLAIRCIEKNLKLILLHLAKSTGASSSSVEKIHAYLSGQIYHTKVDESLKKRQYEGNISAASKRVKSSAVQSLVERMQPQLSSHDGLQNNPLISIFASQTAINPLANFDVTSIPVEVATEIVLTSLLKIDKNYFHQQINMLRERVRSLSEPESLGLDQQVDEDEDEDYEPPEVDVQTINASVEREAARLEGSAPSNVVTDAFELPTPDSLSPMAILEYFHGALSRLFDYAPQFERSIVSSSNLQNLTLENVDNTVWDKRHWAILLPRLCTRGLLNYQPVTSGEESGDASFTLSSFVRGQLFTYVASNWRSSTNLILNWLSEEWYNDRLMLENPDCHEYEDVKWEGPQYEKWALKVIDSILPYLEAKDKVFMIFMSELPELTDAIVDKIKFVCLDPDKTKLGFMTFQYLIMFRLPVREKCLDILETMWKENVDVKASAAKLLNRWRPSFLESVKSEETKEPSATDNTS

[3] = target: T1, SymplekinNTD (Symplekin residues 1–307) (S. pombe); test: SEC
[4] = target: T3, SymplekinNTD^DPR-AAA (S. pombe) (UniProt Q10222); test: SEC
T3 sequence: T1 sequence with D160A, P161A, R162A

Measured: binding

B1: Ssu72 (S. pombe) (enzyme, UniProt O42868 1-197)
chain: MAPKTNLQISVICASNQNRSMEAHNVLKNAGYQVDSFGTGSAVRLPGPSIDKPNIYQFGYPYDEIYKELEAQDSRLYTANGLLKMLDRNRRIKRAPCRWQDQDSIYNIVITCEERCYDAICEDLYRRGETLNRPVYLINVDIKDNHEEASVGGKAILDLVNKLTEAQDKLEELFPSIMADFQSNHPKLPVLYTIHFF
binds: all assays above
